We go through three substances from publication PMC11236538.

The chains behind the UniProt entries cited, without tags or fusion partners. Where a name states a change or a piece, a line headed by the entry shows the natural chain unless it says otherwise. Residues count along the entry.
UniProt P19438, residues 30-211: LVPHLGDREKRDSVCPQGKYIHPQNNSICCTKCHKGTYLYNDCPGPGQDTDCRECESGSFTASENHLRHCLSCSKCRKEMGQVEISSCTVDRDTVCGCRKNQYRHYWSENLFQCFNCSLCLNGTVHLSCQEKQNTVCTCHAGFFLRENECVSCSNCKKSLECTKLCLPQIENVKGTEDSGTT
UniProt P20333: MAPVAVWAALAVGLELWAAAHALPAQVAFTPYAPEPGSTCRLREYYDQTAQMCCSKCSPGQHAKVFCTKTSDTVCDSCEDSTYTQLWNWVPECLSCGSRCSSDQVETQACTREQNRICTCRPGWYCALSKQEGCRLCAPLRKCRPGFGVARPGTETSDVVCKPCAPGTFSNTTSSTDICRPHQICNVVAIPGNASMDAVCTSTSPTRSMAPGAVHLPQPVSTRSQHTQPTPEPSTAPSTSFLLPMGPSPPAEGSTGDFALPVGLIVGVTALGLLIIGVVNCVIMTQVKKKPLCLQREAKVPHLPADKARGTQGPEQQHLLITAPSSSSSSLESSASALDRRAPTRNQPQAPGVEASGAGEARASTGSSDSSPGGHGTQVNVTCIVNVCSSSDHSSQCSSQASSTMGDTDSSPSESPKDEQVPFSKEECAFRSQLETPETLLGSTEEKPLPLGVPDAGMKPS
TNFR2, endogenous in HUVECs (human (endogenous in HUVEC)): residues 23-461 of P20333
TNFR2-Fc: residues 23-257 of P20333
UniProt O14786: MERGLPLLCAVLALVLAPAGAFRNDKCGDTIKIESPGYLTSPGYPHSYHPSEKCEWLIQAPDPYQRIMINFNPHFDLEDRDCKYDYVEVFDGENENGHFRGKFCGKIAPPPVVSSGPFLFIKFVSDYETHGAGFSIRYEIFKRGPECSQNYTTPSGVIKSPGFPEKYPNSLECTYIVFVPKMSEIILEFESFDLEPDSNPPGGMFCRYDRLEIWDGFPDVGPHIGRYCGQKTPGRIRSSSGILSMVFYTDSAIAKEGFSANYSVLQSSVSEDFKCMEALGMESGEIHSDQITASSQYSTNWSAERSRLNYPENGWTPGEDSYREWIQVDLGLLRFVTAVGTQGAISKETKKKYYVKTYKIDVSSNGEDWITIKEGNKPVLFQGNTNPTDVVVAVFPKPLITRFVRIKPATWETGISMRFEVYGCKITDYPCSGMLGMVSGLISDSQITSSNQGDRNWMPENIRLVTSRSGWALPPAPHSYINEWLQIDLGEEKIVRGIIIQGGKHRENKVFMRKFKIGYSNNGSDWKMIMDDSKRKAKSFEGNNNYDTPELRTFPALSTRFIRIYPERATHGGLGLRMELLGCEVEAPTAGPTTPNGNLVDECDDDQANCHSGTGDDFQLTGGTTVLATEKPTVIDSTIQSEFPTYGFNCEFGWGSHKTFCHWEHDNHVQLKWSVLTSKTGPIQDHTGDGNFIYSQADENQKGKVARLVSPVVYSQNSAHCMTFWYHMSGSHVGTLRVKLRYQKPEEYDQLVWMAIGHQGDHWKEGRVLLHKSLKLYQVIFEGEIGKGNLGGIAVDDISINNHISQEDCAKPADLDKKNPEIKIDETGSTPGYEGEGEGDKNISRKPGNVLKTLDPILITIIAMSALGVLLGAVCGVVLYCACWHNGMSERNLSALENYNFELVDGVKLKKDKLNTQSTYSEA

No constants are given. Whether binding was seen depends on the method and setting. For some of these results: Binding seen in cells or lysates may run through a third protein. Some entries that bind do so weakly or less than the wild type.

Test [1] deals with GPI-anchored ectodomain of TNFR1 on HEK293 cells (UniProt P19438). Nature of the test: binding of a Gaussia luciferase (GpL) fusion protein to cells; HEK293 cells with TNFR1-GPI or TNFR2-GPI; 100 ng/mL GpL fusion protein in the absence and presence of 200 ng/mL TNF; total binding, 2 h at 37°C.
Test [2] has as its target GPI-anchored ectodomain of TNFR2 on HEK293 cells (UniProt P20333). The test is described as above.
In test [3] the target is GPI-anchored ectodomain of TNFR1 on HEK293 cells (UniProt P19438). As to the kind of experiment: binding of a Gaussia luciferase (GpL) fusion protein to cells; HEK293 cells transiently expressing GPI-anchored TNFR1 or TNFR2 ectodomain; empty-vector cells for unspecific binding; GpL fusion proteins 2 h at 37°C in RPMI, 10% FCS.
Test [4] deals with GPI-anchored ectodomain of TNFR2 on HEK293 cells (UniProt P20333). The test is described as above.
Another test addresses TNFR2-Fc (UniProt P20333). As to the kind of experiment: binding of a Gaussia luciferase (GpL) fusion protein to coated plates; TNFR2-Fc (2 μg/mL) immobilised on black 96-well plastic plates; TRAILR1-Fc wells for unspecific binding; GpL fusion proteins 2 h at 37°C; 10 washes with ice-cold PBS.
Test [5] deals with TNFR2, endogenous in HUVECs (human (endogenous in HUVEC)) (UniProt P20333). As to the kind of experiment: co-IP; HUVEC lysates (HEPES 50 mM, NaCl 125 mM, CHAPS 0.5%, EDTA 1 mM, DTT, PMSF) incubated overnight with anti-TNFR1 or anti-TNFR2 antibodies on Protein G Dynabeads; blot for NRP1; cells with or without TNFα (5 ng/mL, 15 min).

Turning to “NRP1-Fc-GpL fusion protein (from UniProt O14786 22-856) (Fc fusion)”, the binding result in test [1] is recorded as “no binding (tested: 100 ng/mL)”; in test [2] it was “no binding (tested: 100 ng/mL)”; in test [3], “no binding”; in test [4], “no binding”; with TNFR2-Fc, “no binding”.

As to “NRP1 expressed from a retrovirus in HUVECs (from UniProt O14786 22-923)”, the binding result in test [5] is recorded as “binds”.

On to “neuropilin-1 (NRP1), endogenous in HUVECs (from UniProt O14786 22-923)”, for which, in test [5], the binding entry is listed as “binds”.
